Patent US20120100157A1, “Biomarker and Method for Predicting Sensitivity to MET Inhibitors” (Van Andel Research Institute, priority 2010, published 2012)
At least one structure is not confirmed: it was looked up by name or label, or the drawing left a doubt.

How the values were obtained:
[1] = system: U251M2, T98G, and DBM2 cells; assay: HGF- and EGF-induced uPA activity in GBM cells without autocrine HGF; type: cell-based, human; settings: at 24 hrs
Procedure: (§1) Cells were grown overnight in DMEM/10% FBS. Drugs were dissolved in DMSO and serially diluted from stock concentrations into DMEM/10% FBS medium and added to the appropriate wells. Immediately after drug or reagent addition, HGF/SF (60 ng/ml) was added to all wells (with the exception of wells used as controls to calculate basal growth and uPA-plasmin activity levels). Twenty-four hours after drug and HGF/SF addition, plates were processed for the determination of plasmin activity as described previously (22). Wells were washed twice with DMEM (without phenol red; Life Technologies, Inc.), and 200 μl of reaction buffer [50% (v/v) 0.05 units/ml plasminogen in DMEM (without phenol red), 40% (v/v) 50 mM Tris buffer (pH 8.2), and 10% (v/v) 3 mM Chromozyme PL (Boehringer Mannheim) in 100 mM glycine solution] was added to each well. The plates were then incubated at 37° C., 5% CO2, for 4 h, at which time the absorbance was read on an automated spectrophotometric plate reader at the single wavelength of 405 nm.

U87M2 cells = assay: uPA activity in HGF-autocrine U87M2 cells; type: cell-based, human; settings: at 24 hrs
Procedure: as §1

## Cn1nnc2c(C(N)=O)ncn2c1=O [temozolimide, temozolomide]
[1]
  inhibition of uPA activity: did not show activity inhibiting uPA
U87M2 cells
  inhibition of uPA activity: did not show activity inhibiting uPA
